PubChem BioAssay AID1259254 – NCATS | 2017
In all, the deposit lists about 59,000 reagents; this is a random part of them. About 1,550 of all reagents (2.6%) count as active. 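G2 share is only a proxy for re-replication; each gene was hit by three separate siRNAs, and active genes were retested.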 The numbers tell different reagents against one gene apart. Not all columns of the deposit are shown. Not stated in the record: the amount of reagent.

Aim: 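Genome-wide screen for genes that prevent DNA re-replication in cancer cells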 (primary screen)
Cells: human HCT116 colorectal cancer cells
Knock-down reagent: single siRNA against human genes
Duration: 3 days
Detection: 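Nuclei stained with Hoechst and imaged; cell-cycle phase assigned by DNA content; G2 share scaled per plate, non-targeting siRNA 0%, GMNN siRNA 100%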
Reading the numbers: G2 robust z-score: higher = more G2 cells, more excess DNA replication
Active means: 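Active siRNAs have a G2 robust z of 5 or more median absolute deviations over the median, which in these data means about 38% or higher of GMNN control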

gene knocked down,reagent no.,G2 robust z-score,activity call
FAM117A,1,1.99,inactive
FAM117A,2,-0.516,inactive
FAM117A,3,-0.397,inactive
OR2T11,1,0.868,inactive
OR2T11,2,0.213,inactive
OR2T11,3,-0.491,inactive
SH3RF2,1,-0.463,inactive
SH3RF2,2,0.737,inactive
SH3RF2,3,-0.658,inactive
YOD1,1,-0.612,inactive
YOD1,2,0.218,inactive
YOD1,3,1.34,inactive
WEE1,1,4.65,inactive
WEE1,2,1.8,inactive
WEE1,3,0.644,inactive
HEPHL1,1,-0.338,inactive
HEPHL1,2,-0.593,inactive
HEPHL1,3,0.303,inactive
TSPOAP1,1,-0.35,inactive
TSPOAP1,2,-0.18,inactive
TSPOAP1,3,-0.581,inactive
TMEM203,1,-0.341,inactive
TMEM203,2,-0.745,inactive
TMEM203,3,-0.219,inactive
DNAAF2,1,2.32,inactive
DNAAF2,2,0.797,inactive
DNAAF2,3,0.829,inactive
DLL1,1,-0.473,inactive
DLL1,2,-0.524,inactive
DLL1,3,-0.307,inactive

Entries listed so far whose target name begins with F or f:
gene knocked down,reagent no.,G2 robust z-score,activity call
FAM117A,1,1.99,inactive
FAM117A,2,-0.516,inactive
FAM117A,3,-0.397,inactive
